Reference: PMC2660419
Like-named read-outs stand apart in the source and are kept apart here. Results are given in words; binding and its absence hold for the method and conditions named. Binding calls can cover weak binding; strength is not graded here. For some of these results: Sequences can lack the tags named with a protein. For some of these results: In cells and extracts the contact can be indirect. One block for each molecule: values may come before it.

Tests used:
[1] = biological target: GST-PTB1 (PTB1 domain of FE65 fused to GST) (rat) (UniProt P46933); experiment: pull-down; purified GST or GST-PTB1 on glutathione agarose beads incubated with H4 cell lysate expressing myc-tagged Teashirt constructs; washes PBS pH 7.4, 1% Triton X-100; anti-myc blot; only the target purified
[2] = biological target: T1, PTB1 domain of rat FE65 (amino acids 360-524) fused to the LexA DNA-binding domain (rat) (UniProt P46933); experiment: two-hybrid; yeast; PTB1 of rat FE65 (360-524) fused to LexA DNA-binding domain as bait (DUALhybrid); adult mouse and fetal human brain cDNA libraries screened; bait dependency confirmed by retransformation
T1 sequence: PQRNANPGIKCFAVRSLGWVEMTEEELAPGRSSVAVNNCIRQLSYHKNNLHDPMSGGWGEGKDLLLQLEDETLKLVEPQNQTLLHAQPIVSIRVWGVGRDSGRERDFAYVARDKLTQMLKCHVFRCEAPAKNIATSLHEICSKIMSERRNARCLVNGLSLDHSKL

[3] = biological target: GST-PTB1 (PTB1 domain of FE65 fused to GST) (rat) (UniProt P46933); experiment: pull-down; purified GST or GST-PTB1 on glutathione agarose beads incubated with H4 cell lysate expressing myc-tagged Teashirt constructs; washes PBS pH 7.4, 1% Triton X-100; anti-myc blot; only the target purified; remark: listed apart in the source
[4] = biological target: endogenous Teashirt of rat cortical neurons (rat (endogenous in primary cortical neurons)); experiment: co-IP; 100 ug extract of rat cortical neurons (E18 primary cultures); IP with KD74 anti-Teashirt antibody or mouse IgG, blot with rabbit anti-FE65

- binding [4]: binds
B2: endogenous FE65 of rat cortical neurons (protein, UniProt P46933 1-711)
chain: MSVPSSLSQSAINANSHGGPALSFPFPLHAAHNQLLNAKLQATAVVPKDLRSAMGEGSVPEPGPANAKWLKEGQNQLRRAATAHRDQNRNVTLTLAEEASQEAETAPLGPKGLMHLYSELELSAHNAANRGLHGSALIINTQGLGPDEGEEKAAGEVEEEDEDEEEEDEEEEDLSSPQGLPEPLENVEVPSGPQVLTDGPREHSKSASLLFGMRNSAASDEDSSWATLSQGSPSYGSPEDTDSFWNPNAFETDSDLPAGWMRVQDTSGTYYWHIPTGTTQWEPPGRASPSQGNSPQEESQLTWTGFAHQEGFEEGEFWKDEPSEEAPMELGLKDPEEGTLPFSAQSLSPEPVPQEEENLPQRNANPGIKCFAVRSLGWVEMTEEELAPGRSSVAVNNCIRQLSYHKNNLHDPMSGGWGEGKDLLLQLEDETLKLVEPQNQTLLHAQPIVSIRVWGVGRDSGRERDFAYVARDKLTQMLKCHVFRCEAPAKNIATSLHEICSKIMSERRNARCLVNGLSLDHSKLVDVPFQVEFPAPKNELVQKFQVYYLGNVPVAKPVGVDVINGALESVLSSSSREQWTPSHVSVAPATLTILHQQTEAVLGECRVRFLSFLAVGRDVHTFAFIMAAGPASFCCHMFWCEPNAASLSEAVQAACMLRYQKCLDARSQTSTSCLPAPPAESVARRVGWTVRRGVQSLWGSLKPKRLGSQTP

- binding [3]: binds
B3: myc-tagged mouse Teashirt1 (protein, UniProt Q5DTH5 1-1084)
chain: MPRRKQQAPRRSAAYVPEEELKAAEIDEEHAEDGGLSLDIQESEFACNEETEIKEAQSYQNSPVSTATNQDAGYGSPFSEGSDQLAHFKSSSSREEKEESQCPDSVSYPQDSLAQIKAVYANLFSESCWSSLALDLKKSNSATSNNDASQKESSTPTPTPPTSTASTACTTATTAITSCSTSTSHSSTTSNSSSSGYDWHQAALAKTLQQTSSYGLLPEPSLFSTVQLYRQNNKLYGSVFTGASKFRCKDCSAAYDTLVELTVHMNETGHYRDDNRDKDSEKTKRWSKPRKRSLMEMEGKEDAQKVLKCMYCGHSFESLQDLSVHMIKTKHYQKVPLKEPVPAITKLVPSTKKRALQDLASPCSPEPTGVATEVALSESAKDQKTANPYVTPNNRYGYQNGASYTWQFEARKAQILKCMECGSSHDTLQQLTAHMMVTGHFLKVTTSASKKGKQLVLDPVVEEKIQSIPLPPTTHTRLPASSIKKQPDSPAGSVASEEKKEPEKEKEKEKAPPAAGDAERKIKEETEDATEKFEPTALYQYLREEDLDDSPKGGVDILKSLENTVSTAISKAQNGAPSWGGYPSIHAAYQLPGTVKPLQSAVQSVQIQPSYASSVKSLSSTEHNALLHSPGSLTPPPHKSNVSAMEELVEKVTGKVSIKKEERPTEKEKSSPVKAISPVAKENKDLPKTEETGSKPQKKGSDSETGKAKKESTLDAHTPNGTEPLKAKVTNGCGHLGIITDHSPEPSFINPLSALQSIMNTHLGKVSKPVSPSLDPLAMLYKISNSMLDKPVYPTTPAKQADAIDRYYYENSDQPIDLTKSKNKPLVSGVADAVSSPLRESALMDISDMVKNLTGRLTPKSSTPSTVSEKSDADGSSFEEALDELSPVHKRKGRQSNWNPQHLLILQAQFASSLRETAEGKYIMSDLGPQERVHISKFTGLSMTTISHWLANVKYQLRRTGGTKFLKNLDTGHPVFFCNDCASQFRTASTYVSHLETHLGFSLKDLSKLPLSQIQEQQSVVSKALTNKTLGPLGSSEEDLGSTFQCKLCNRTFASKHAVKLHLSKTHGKSPEDHLIYVTELEKQ

More lines, now with the values behind:

Molecule: myc-tagged wild-type (NVKY) C-terminal construct of human Teashirt3 (from UniProt Q63HK5) (domain or fragment)
- binding [1]: binds

Molecule: Similar to Alex3 (mouse)
- binding [2]: binds

B1: myc-tagged mouse Teashirt2 (protein, UniProt Q68FE9 1-1030)
chain: MPRRKQQAPKRAAGYAQEEVLKEEEEIKEEEEEEEDSGSVAQHQSSNDTGTDEELETGPEQKGYFSCQNSPGSHLSNQDAENESLLSDASDQVSDVKSVCGRDVSDKKANTHPKLPSEPHNCMDKMTAVYANILSDSYWSGLGLGFKLSNSERRNCDTRNSSGKNDFDWHQDALSKSLQQNLPSRSVSKPSLFSSVQLYRQSSKLCGSVFTGASRFRCRQCSAAYDTLVELTVHMNETGHYQDDNRKKDKLRPTSYSKPRKRAFQDMDKEDAQKVLKCMFCGDSFDSLQDLSVHMIKTKHYQKVPLKEPVPTISSKMVTPAKKRVFDVNRPCSPDSTTGSLADSFSSQKSANLQLPSNSRYGYQNGASYTWQFEACKSQILKCMECGSSHDTLQQLTTHMMVTGHFLKVTSSASKKGKQLVLDPLAVEKMQSLSETPNSESLAPKPSSNSPSECTASTTELKKESKKEKGEGIEDEQGVKSEDYEDSLQKPLDPTIKYQYLREEDLEDGSKGGGDILKSLENTVTTAINKAQNGAPSWSAYPSIHAAYQLSEGTKPPMAMGSQILQIRPNLANKLRPIAPKWKGMPLGPVPTSLALYTQVKKETEDKDEVVKQCGKESPHEEATSFSQPEGESFSKIEPPSESRKAEPCPLKEEEKPQKEKPEPLEPVSSLTNGCAPANHTPALPSINPLSALQSVLNNHLGKATEPLRSPSCSSPNSSTSPVFHKSSLHVVDKPVISPTSTRPAASVARHYLFENTDQPIDLTKSKSKRAESSQAQSCTSPPQKHALCDIADMVKVLPKATTPKPAASSRVPPMKLEIDVRRFEDVSSEVSTLHKRKGRQSNWNPQHLLILQAQFASSLFQTSEGKYLLSDLGPQERMQISKFTGLSMTTISHWLANVKYQLRKTGGTKFLKNMDKGHPIFYCSDCASQFRTPSTYISHLESHLGFQMKDMTRMAADQQSKVEQEISRVSSAQRSPETIAGEEDTDSKFKCKLCRRTFVSKHAVKLHLSKTHSKSPEHHSQFVADVDEE
- binding [3]: binds

B4: myc-tagged mouse Teashirt3 (protein, UniProt Q8CGV9 1-1081)
chain: MPRRKQQAPRRAAAYVSDELKAAALVEDDVEPEEQAADGEPSAKYMCPEKELSKACPSYQNSPAAEFSSHEMDSESHISETSDRMADFESSSIKNEEETKEVQVPLEDTTVSDSLEQMKAVYNNFLSNSYWSNLNLNLHQPSSENNGGSSSSSSSSSSSCGSGSFDWHQSAMAKTLQQVSQNRMLPEPSLFSTVQLYRQSSKLYGSIFTGASKFRCKDCSAAYDTLVELTVHMNETGHYRDDNHETDNNNPKRWSKPRKRSLLEMEGKEDAQKVLKCMYCGHSFESLQDLSVHMIKTKHYQKVPLKEPVTPVAAKIIPAARKKPSLELELPSSPDSTGGTPKATLSDASDALQKNSNPYITPNNRYGHQNGASYAWHFEARKSQILKCMECGSSHDTLQELTAHMMVTGHFIKVTNSAMKKGKPIMETPVTPTITTLLDEKVQSVPLAATTFTSPSNTPASVSPKLAVEIKKEVDKEKAVPDEKPKEREKPSEEEEKYDISSKYHYLTENDLEESPKGGLDILKSLENTVTSAINKAQNGTPSWGGYPSIHAAYQLPNMMKLSLGSSGKSTPLKPMFGNSEIVSPTKTQTLVSPPSSQTSPMPKTNFHAMEELVKKVTEKVAKVEEKMKEPEGKLSPPKRATPSPCSSEQSEPIKMEASSDGSFKSQENSPSPPRDACKEASPSAEPVENGKELVKPLSGGLSGSTAIITDHPPEQPFVNPLSALQSVMNIHLGKAAKPSLPALDPMSMLFKMSNSLAEKAAVATPPPLQAKKAEHLDRYFYHVNNDQPIDLTKGKSDKGCSLGSGLLSPTSTSPATSSSTVTTAKTSAVVSFMSNSPLRENALSDISDMLKNLTESHTSKSSTPSSISEKSDIDGATLEEAEESTPAQKRKGRQSNWNPQHLLILQAQFAASLRQTSEGKYIMSDLSPQERMHISRFTGLSMTTISHWLANVKYQLRRTGGTKFLKNLDTGHPVFFCNDCASQIRTPSTYISHLESHLGFRLRDLSKLSTEQINNQIAQTKSPSEKLVTSSPEEDLGTTYQCKLCNRTFASKHAVKLHLSKTHGKSPEDHLLFVSELEKQ
- binding [3]: binds

B5: full-length Teashirt3 (myc-tagged, interaction mapping of Figure 1C) (protein, UniProt Q63HK5 1-1081)
chain: MPRRKQQAPRRAAAYVSEELKAAALVDEGLDPEEHTADGEPSAKYMCPEKELARACPSYQNSPAAEFSCHEMDSESHISETSDRMADFESGSIKNEEETKEVTVPLEDTTVSDSLEQMKAVYNNFLSNSYWSNLNLNLHQPSSEKNNGSSSSSSSSSSSCGSGSFDWHQSAMAKTLQQVSQSRMLPEPSLFSTVQLYRQSSKLYGSIFTGASKFRCKDCSAAYDTLVELTVHMNETGHYRDDNHETDNNNPKRWSKPRKRSLLEMEGKEDAQKVLKCMYCGHSFESLQDLSVHMIKTKHYQKVPLKEPVTPVAAKIIPATRKKASLELELPSSPDSTGGTPKATISDTNDALQKNSNPYITPNNRYGHQNGASYAWHFEARKSQILKCMECGSSHDTLQELTAHMMVTGHFIKVTNSAMKKGKPIVETPVTPTITTLLDEKVQSVPLAATTFTSPSNTPASISPKLNVEVKKEVDKEKAVTDEKPKQKDKPGEEEEKCDISSKYHYLTENDLEESPKGGLDILKSLENTVTSAINKAQNGTPSWGGYPSIHAAYQLPNMMKLSLGSSGKSTPLKPMFGNSEIVSPTKNQTLVSPPSSQTSPMPKTNFHAMEELVKKVTEKVAKVEEKMKEPDGKLSPPKRATPSPCSSEVGEPIKMEASSDGGFRSQENSPSPPRDGCKDGSPLAEPVENGKELVKPLASSLSGSTAIITDHPPEQPFVNPLSALQSVMNIHLGKAAKPSLPALDPMSMLFKMSNSLAEKAAVATPPPLQSKKADHLDRYFYHVNNDQPIDLTKGKSDKGCSLGSVLLSPTSTAPATSSSTVTTAKTSAVVSFMSNSPLRENALSDISDMLKNLTESHTSKSSTPSSISEKSDIDGATLEEAEESTPAQKRKGRQSNWNPQHLLILQAQFAASLRQTSEGKYIMSDLSPQERMHISRFTGLSMTTISHWLANVKYQLRRTGGTKFLKNLDTGHPVFFCNDCASQIRTPSTYISHLESHLGFRLRDLSKLSTEQINSQIAQTKSPSEKMVTSSPEEDLGTSYQCKLCNRTFASKHAVKLHLSKTHGKSPEDHLLYVSELEKQ
- binding [3]: binds
